Structures were worked out from names or drawings and are uncertain.
Experiments:
NF-kB = NF-kB reporter assay in Jurkat cells stimulated with aCD3/aCD28/PMA; assay type: cell-based; settings: read-out: NF-kB Reporter Assay IC50, 1 hr compound incubation, aCD3/aCD28/PMA stimulation 4 hr, One-Glo readout
MALT1 = MALT1 (Homo sapiens, UniProt Q9UDY8); assay: MALT-1 Fluorogenic Peptide Cleavage Assay (MALT1 inhibition assay); assay type: biochemical; settings: read-out: MALT1 Inhibition IC50; Avi-tagged FL MALT-1, Ac-LRSR-AMC peptide substrate, 30 min pre-incubation, 90 min reaction
Experimental: Inhibition of MALT1 activity by the presence of small molecules was evaluated using MALT-1 Fluorogenic Peptide Cleavage Assay. The assay utilizes a quenched AMC-labelled peptide that contains the MALT-1 recognition sequence and cleavage site (LRSR). MALT-1 mediated cleavage of the peptide relieves the quenching and leads to an increase in fluorescence at excitation (342 nm) and emission (441 nm). The following reagents were obtained commercially and used to prepare standard reagent formulations as further described below: […] The standard reagent formulations used in this assay were prepared and stored as follows. A 1.1 M solution of sodium citrate (161.3 g, 500 mL) was prepared and stored at room temperature. A 10% (w/v) CHAPS solution (2.0 g, 20 mL) was prepared and stored at 4° C. A 500 mM HEPES solution having pH of 6.89 was prepared from 200 mL of a 1 M HEPES solution having a pH of 7.5 using concentrated hydrochloric acid and brought to a final volume of 400 mL with […]® H2O. […] The assay-ready plates were equilibrated to room temperature. […] Fluorescence intensity was determined using a CLARIOstar microplate reader (BMG LABTECH) using the optimised AMC mode. Before taking readings, a 70% gain was applied on the neutral control well. […] Compounds in which an IC50 was not measured are designated as “N/A”.

The chains behind the UniProt entries cited, without tags or fusion partners.
UniProt Q9UDY8, whole entry: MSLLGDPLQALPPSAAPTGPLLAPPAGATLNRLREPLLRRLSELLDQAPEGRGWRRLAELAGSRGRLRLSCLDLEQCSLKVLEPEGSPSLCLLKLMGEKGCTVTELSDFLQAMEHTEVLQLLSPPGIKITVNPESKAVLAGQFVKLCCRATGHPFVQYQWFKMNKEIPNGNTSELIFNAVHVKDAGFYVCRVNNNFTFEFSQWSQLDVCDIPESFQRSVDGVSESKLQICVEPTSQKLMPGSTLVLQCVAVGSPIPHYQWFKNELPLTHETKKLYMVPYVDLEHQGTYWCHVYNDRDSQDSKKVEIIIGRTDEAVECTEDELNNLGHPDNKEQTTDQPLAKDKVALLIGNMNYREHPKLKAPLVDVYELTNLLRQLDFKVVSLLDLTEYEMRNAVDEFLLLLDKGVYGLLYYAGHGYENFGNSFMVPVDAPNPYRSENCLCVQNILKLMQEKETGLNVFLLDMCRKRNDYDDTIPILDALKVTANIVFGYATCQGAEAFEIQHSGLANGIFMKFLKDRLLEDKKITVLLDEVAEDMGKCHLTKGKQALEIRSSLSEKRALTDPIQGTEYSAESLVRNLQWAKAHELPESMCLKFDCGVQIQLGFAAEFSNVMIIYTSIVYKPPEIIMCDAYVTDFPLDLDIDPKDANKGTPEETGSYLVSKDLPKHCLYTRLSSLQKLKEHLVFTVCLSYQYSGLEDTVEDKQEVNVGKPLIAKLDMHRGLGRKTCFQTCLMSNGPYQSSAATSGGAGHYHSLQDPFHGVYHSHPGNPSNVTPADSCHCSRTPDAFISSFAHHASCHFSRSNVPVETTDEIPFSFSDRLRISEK

Compound	IC50 (NF-kB) [nM]	IC50 (MALT1) [nM]
Cc1cc(-n2cc(C(F)(F)F)cn2)ncc1S(=O)(=O)Nc1cccc2cnn(C)c12	< 400	> 2500
Cc1nc(-n2cc(C(F)(F)F)cn2)ccc1S(=O)(=O)Nc1cccc2cnn(C)c12	< 400	400 to 1000

— US20240150365A1 (Hotspot Therapeutics, Inc., priority 2022, published 2024)
